Data source: PubChem BioAssay AID686937 (Drosophila RNAi Screening Center, 2013)
The screen tested about 23,000 reagents; shown is a random part of those that have a named target and a result. 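Reduced-secretion tags in replicate 1 do not always agree with the z-scores; no criterion for assigning the tags was given.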 Names joined by + are all predicted targets of the reagent. Further read-outs or replicates are left out here. Not stated in the record: the amount of reagent.

- Assay: 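Genes in the fly needed for secretion of protein constitutively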 (primary screen)
- System: Drosophila S2 cells expressing secreted horseradish peroxidase
- Reagents: long dsRNA against Drosophila genes
- Duration: about 5.5 days (5 days dsRNA, then 12 h reporter induction)
- Treatment: reporter expression induced after 5 days of dsRNA, read 12 h later; inducer not stated
- Read-out: 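After 5 days of dsRNA and 12 h of reporter induction, medium peroxidase read by chemiluminescence and scored as per-plate z-score; higher values mean more reporter released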
- Reading the numbers: z-score: higher = more reporter secreted into medium

CG30486 [DRSC06680] scored z-score, replicate 1 = 0.33.
Acp53C14a [DRSC07224] gave z-score, replicate 1 = 0.24.
With knock-down of cyst [DRSC02023], the screen gave z-score, replicate 1 = 0.14.
Cyp4c3 [DRSC16631] scored z-score, replicate 1 = -0.12.
CG42399 [DRSC00322] showed z-score, replicate 1 = -0.22.
With knock-down of CG42399 [DRSC00661] the results were z-score, replicate 1 = 0.17.
CG15071 [DRSC06504] gave z-score, replicate 1 = 0.22.
Rab9 [DRSC03281] scored z-score, replicate 1 = 0.38.
Silencing of CG31948 [DRSC00740] resulted in: z-score, replicate 1 = 0.12.
After knock-down of Mal-A6 [DRSC07233], the screen gave z-score, replicate 1 = 0.23.
With knock-down of byn [DRSC11332], the record shows z-score, replicate 1 = 0.34.
With knock-down of CG7567 [DRSC16258], the record shows z-score, replicate 1 = 0.22.
Met75Ca + Met75Cb [DRSC09549] gave z-score, replicate 1 = 0.65.
With knock-down of Met75Ca + Met75Cb [DRSC11221] the results were z-score, replicate 1 = 0.43.
Silencing of blp [DRSC15757] resulted in: z-score, replicate 1 = 0.13.
Silencing of Lipt2 [DRSC12338] resulted in: z-score, replicate 1 = 0.18.
Lipt2 [DRSC22610] scored z-score, replicate 1 = -0.57.
Against CG11523 [DRSC11669], the entry reads z-score, replicate 1 = 0.55.
After knock-down of CG31224 [DRSC15272], the record shows z-score, replicate 1 = 0.67.
After knock-down of CG31224 [DRSC16290] the results were z-score, replicate 1 = 0.55.
Knock-down of Gr98a [DRSC14719] came out at: z-score, replicate 1 = -1.55.
Knock-down of Clic [DRSC19364] resulted in: z-score, replicate 1 = 0.11.
With knock-down of CG13376 [DRSC17901], the record shows z-score, replicate 1 = 0.42.
For Recs1 [DRSC16545] the deposit lists z-score, replicate 1 = 0.32.
With knock-down of Neb-cGP [DRSC17991], the screen gave z-score, replicate 1 = 0.29.
Silencing of tna [DRSC09053] gave: z-score, replicate 1 = -0.46.
tna [DRSC10937] scored z-score, replicate 1 = 0.16.
CG33648 [DRSC01387] showed z-score, replicate 1 = 0.6.
CG18266 [DRSC02659] scored z-score, replicate 1 = 0.3.
For Gycbeta100B [DRSC14039], the entry reads z-score, replicate 1 = 0.53.
For Gycbeta100B [DRSC14040] the deposit lists z-score, replicate 1 = 0.73.
With knock-down of Gycbeta100B [DRSC16691], the screen gave z-score, replicate 1 = 0.34.
Silencing of Gr64d + Gr64e [DRSC08446] gave: z-score, replicate 1 = 0.47.
Against Marf1 [DRSC03747], the entry reads z-score, replicate 1 = -0.03.
After knock-down of Marf1 [DRSC03774], the record shows z-score, replicate 1 = -0.26.
With knock-down of Eo [DRSC20187], the record shows z-score, replicate 1 = 0.27.
Against CG34135 + CG11768 [DRSC12702], the entry reads z-score, replicate 1 = 0.02.
CG12951 [DRSC14579] gave z-score, replicate 1 = 0.56.
InR [DRSC16717] gave z-score, replicate 1 = 0.46.
CG4592 [DRSC02761] scored z-score, replicate 1 = -0.15.

As entered above:
Met75Ca + Met75Cb [DRSC09549], z-score, replicate 1 = 0.65
For “z-score, replicate 1”, Eo [DRSC20187] is entered as 0.27
Gycbeta100B [DRSC14039], z-score, replicate 1 → 0.53
